# Values from PubChem BioAssay AID743121 (NCATS, 2013)
# Purpose: 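Knock-downs that sensitise breast cancer cells to camptothecin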 (primary screen)
# Cells: MDA-MB-231 cells, a human breast cancer line
# Knock-down reagent: single siRNA against human genes, 20 nM siRNA (0.8 pmol per well)
# Time to read-out: 120 h (drug added 48 h after transfection, read 72 h later)
# Challenge: camptothecin 20 nM (about EC30) for 72 h; vehicle 0.1% DMSO in parallel plates
# Measurement: 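CellTiter-Glo ATP signal, scaled to control siRNA as percent viability; sensitisation given as log2 of untreated divided by camptothecin-treated viability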
# Reading the numbers: log2 vehicle/camptothecin viability: higher = stronger sensitisation to camptothecin; viability with camptothecin: higher = more viable cells
# Hit rule: 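Each gene scored by redundant siRNA activity (RSA) over its individual siRNA ratios; a gene is called active at p < 0.001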
# Here is one part, drawn at random, of about 26,000 reagents. 167 of all reagents (0.63%) were called active. 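Calls are per gene from RSA p-values that are not deposited; an individual active-marked siRNA can sensitise only weakly.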 The numbers tell different reagents against one gene apart. Further read-outs or replicates are left out here. No sequences are given here.
log2 vehicle/camptothecin viability,viability with camptothecin (% of control),Outcome,gene symbol,reagent
-0.508,58.2,inactive,EIF2AK3,1
-0.0719,117,inactive,EIF2AK3,2
-0.581,47.4,inactive,EIF2AK3,3
-0.197,111,inactive,EIF2AK3,4
-0.229,93.8,inactive,ALPP,1
-0.651,107,inactive,ADAMTS12,1
0.431,6.91,inactive,ADAMTS12,2
0.234,21.7,inactive,ADAMTS12,3
-0.0316,97.6,inactive,ADAMTS12,4
-0.106,94.8,inactive,ENO1,1
-0.0901,74,inactive,ENO1,2
-0.182,73.4,inactive,ENO1,3
-0.291,23.7,inactive,HNRNPUL1,1
-0.607,94.7,inactive,HNRNPUL1,2
-0.464,92.9,inactive,HNRNPUL1,3
-0.339,36.2,inactive,HNRNPUL1,4
-0.731,66.4,inactive,AIFM2,1
-0.0752,115,inactive,AIFM2,2
0.161,67.2,inactive,AIFM2,3
-0.0977,108,inactive,AIFM2,4
-0.181,74.5,inactive,MPP3,1
-0.286,96,inactive,MPP3,2
-0.141,57.5,inactive,MPP3,3
-0.0143,93.5,inactive,MPP3,4
-0.0677,100,inactive,STAB2,1
0.186,95.9,inactive,STAB2,2
0.593,67.4,inactive,STAB2,3
-0.457,99.7,inactive,STAB2,4

A portion from the list above:
log2 vehicle/camptothecin viability,viability with camptothecin (% of control),Outcome,gene symbol,reagent
-0.0143,93.5,inactive,MPP3,4
-0.0677,100,inactive,STAB2,1
